Measured values from PubChem BioAssay AID493014 (National Center for Advancing Translational Sciences (NCATS), 2011).
Among all 340,000 compounds or so, about 170 (0.05%) were called active. The inconclusive results got no clear call from the source; some entries with a clear call stand among them for comparison. Calls come from the whole dose curve; as a rule, active = well fitted inhibition curve with a large enough effect in the signal ratio, with a control signal flat (not every such curve was filed as active); inconclusive = small, poorly fitted or top-dose-only effect, or effect the other way, or a change in a side signal; inactive = flat fitted curve, though single readings scatter; the % refers to the signal ratio. A potency beside an inconclusive call is a rough fit, not a confirmed value.

experiment: qHTS Assay to Find Inhibitors of Chronic Active B-Cell Receptor Signaling; conditions: ABC-DLBCL IkBa-CBG/CBR reporter, luminescence ratio (green luciferase fused to IkBa over red control in TMD8 lymphoma cells), 4 h; activity change, negative = inhibition: at 46.1 µM (top of the series) unless noted;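 for activity change, negative = inhibition: plate controls were basal doxycycline-induced cells for no effect and cells given 10 µM MG132 for full effect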
Method in brief: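 Doxycycline induced both beetle luciferases in TMD8 lymphoma cells; IKK-driven degradation limits the IkappaBalpha-fused green signal, while red luminescence normalises for cell number and nonspecific effects. Compounds tested up to 46 uM, 4 hrs.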
Potency is the fitted concentration of half-maximal effect.

SMILES | Potency | activity change, negative = inhibition
O=C(Nc1ccc(S(=O)(=O)Nc2ncccn2)cc1)c1ccc2ncsc2c1 | inconclusive: 35.5 µM [rising, single point] | 
O=C(OCc1cc(=O)n2ccsc2n1)c1ccccc1NCCO | inconclusive: 13 µM [falling, partial curve, poor fit] | 
Cc1cc2nc(/C(C#N)=C\c3ccc(-c4ccccc4C(=O)O)o3)[nH]c2cc1C |  | inactive
CC1(C)C(=O)CC[C@@]2(C)[C@H]1CC[C@@]1(C)CC3=C(CC[C@@H]12)[C@@]1(C)CCC(=O)C(C)(C)[C@@H]1CC3 |  | inconclusive: -24.5%
CCOC(=O)c1sc(NC(=O)c2ccc(S(=O)(=O)N3CCOCC3)cc2)nc1-c1ccccc1 | inconclusive: 0.164 µM [rising, full curve, poor fit] | 
COc1cc2nc(C3CCC3)nc(N3CCN(c4ccccn4)CC3)c2cc1OC |  | inconclusive: -0.693%
O=C1CC(c2ccccc2)CC(=NCCO)/C1=C(\O)CCCN1C(=O)c2ccccc2C1=O (stereo not drawn) |  | inactive
CCCN(CCC)c1ncnc2nc[nH]c12 |  | inconclusive: 9.28%
C/C(=N\NC(=O)CNc1cccc(C(F)(F)F)c1)c1cccs1 |  | inconclusive: 0.412%
COc1ccc(OC)c(C2CC(c3c(-c4ccccc4)c4cc(Cl)ccc4[nH]c3=O)=NN2S(C)(=O)=O)c1 (stereo not drawn) |  | inconclusive: 3.27%
Cc1ccc(C(=O)c2cnc3cc4c(cc3c2S(=O)(=O)c2ccccc2)OCCO4)cc1 | inconclusive: 20.6 µM [falling, partial curve] | 
C/C(=N\NC(=O)c1ccn[nH]1)c1cn(C)nc1C | inconclusive: 23.1 µM [falling, single point] | 
CN(C)S(=O)(=O)c1cc(NC(=O)COC(=O)/C=C/c2ccco2)ccc1Cl |  | inconclusive: 3.23%
Cc1ccccc1Nc1ncnc2c1cnn2C | inconclusive: 35.5 µM [falling, single point] | 
Cc1cc(NC(=O)c2ccc(S(=O)(=O)N3CCCC3)cc2)nc2c1c(=O)oc1ccccc12 |  | inconclusive: 18.8%
CC(C)CSc1ncnc2c1oc1nc3c(cc12)COC(C)(C)C3 |  | inconclusive: 0.633%
NC(=O)NC(c1ccccc1)c1cccc2ccccc12 (stereo not drawn) | inconclusive: 9.2 µM [falling, partial curve] | 
CC(=O)c1cccc(NC(=O)Nc2ccc3c(c2)N(C)C(=O)CS3)c1 |  | inconclusive: 14.4%
CCCC(=O)Nc1nnc(Sc2ccc(N(C)C)cc2)s1 |  | inconclusive: -0.153%
CC(C)NC(=O)CN1C(=O)c2cccc3cccc1c23 |  | inactive
NS(=O)(=O)c1ccc(CNC(=O)CNC(=O)c2ccc(Br)o2)cc1 |  | inactive
CCCC(C(=O)NCc1ccco1)N(C(=O)CNS(=O)(=O)c1ccccc1)c1ccc(OC)cc1 (stereo not drawn) |  | inconclusive: 0.0611%
CSc1ccccc1NC(=O)C1CC(c2ccccc2O)=NO1 (stereo not drawn) |  | inconclusive: -11.3%
CC(=O)Nc1ccc(-c2cn3ccsc3n2)cc1 | inconclusive: 16.4 µM [falling, partial curve, poor fit] | 
COc1ccc(C2C(=O)N(CCc3ccccc3)CC(=O)N2C2CCCCC2)cc1 (stereo not drawn) | inconclusive: 0.0082 µM [falling, full curve, poor fit] | 
O=C(CN1C(=O)NC2(CCCC2)C1=O)NCCc1ccc(Cl)cc1Cl |  | inactive

An excerpt from the list above, as a working copy:
SMILES | Potency | activity change, negative = inhibition
CC1(C)C(=O)CC[C@@]2(C)[C@H]1CC[C@@]1(C)CC3=C(CC[C@@H]12)[C@@]1(C)CCC(=O)C(C)(C)[C@@H]1CC3 |  | inconclusive: -24.5%
CCOC(=O)c1sc(NC(=O)c2ccc(S(=O)(=O)N3CCOCC3)cc2)nc1-c1ccccc1 | inconclusive: 0.164 µM [rising, full curve, poor fit] | 
COc1cc2nc(C3CCC3)nc(N3CCN(c4ccccn4)CC3)c2cc1OC |  | inconclusive: -0.693%
O=C1CC(c2ccccc2)CC(=NCCO)/C1=C(\O)CCCN1C(=O)c2ccccc2C1=O (stereo not drawn) |  | inactive
CCCN(CCC)c1ncnc2nc[nH]c12 |  | inconclusive: 9.28%
C/C(=N\NC(=O)CNc1cccc(C(F)(F)F)c1)c1cccs1 |  | inconclusive: 0.412%
COc1ccc(OC)c(C2CC(c3c(-c4ccccc4)c4cc(Cl)ccc4[nH]c3=O)=NN2S(C)(=O)=O)c1 (stereo not drawn) |  | inconclusive: 3.27%

More results.

SMILES | Potency | activity change, negative = inhibition
C=CCNCCCOc1ccc(Cl)cc1C(C)(C)C | inconclusive: 31.6 µM [falling, partial curve, poor fit] | 
COc1ccccc1NS(=O)(=O)c1ccc2[nH]c(=S)oc2c1 |  | inconclusive: 8.06%
CC[N+]1(CC)CC2=Cc3c(ccc4ccccc34)CC2C1 (stereo not drawn) |  | inconclusive: -4.72%
CCCOc1ccc2oc(=O)c3c(c2c1)CCCN3C(=O)CN1CCc2ccccc2C1 |  | inconclusive: -4.29%
C/C(=N/OCC(=O)Nc1ccccc1)c1cccs1 | inconclusive: 15.8 µM [falling, partial curve, poor fit] | 
COc1ccc(-c2sc3cc(OC)c(OC)cc3c2C#CCO)cc1 |  | inconclusive: 1.57%
Nc1ncnc(Oc2ccccc2F)c1[N+](=O)[O-] |  | inactive
CC1CCCC(C)N1/N=C/c1ccc(Cl)cc1 (stereo not drawn) |  | inconclusive: -2.84%
COc1ccc(O)c(/C=N/NC(=S)Nc2cccnc2)c1 |  | inactive
CC(=O)N(C)N(C)c1cc(C)nc(N)n1 |  | inconclusive: 9.56%
O=C(O)c1ccc(NCCc2ccc(Cl)cc2)c([N+](=O)[O-])c1 |  | inconclusive: 22.6%
CN1CCN(C(=O)c2cccn(Cc3ccc(C(F)(F)F)cc3)c2=O)CC1 |  | inconclusive: 4.22%
Cc1ccc(-c2cc(C(=O)N/N=C/c3ccccc3)n[nH]2)o1 |  | inconclusive: -23.9%
CNC(=O)c1cc(Nc2nnc(-c3ccc(C)c(S(N)(=O)=O)c3)c3ccccc23)ccc1OC | inconclusive: 14.1 µM [falling, partial curve, poor fit] | 
Cc1nc(-c2ccccn2)nc(N2CCOCC2)c1Cl |  | inconclusive: -24.8%
COc1cccc(C(=O)Nc2cccc(S(=O)(=O)NC3=NCCC3)c2)c1 |  | inconclusive: 0.112%
O=C1C2C3C=CC(CC3)C2C(=O)N1/N=C/c1ccc(O)c(O)c1 (stereo not drawn) | inconclusive: 16.4 µM [falling, partial curve] | 
CCCCCCOC(=O)c1ccc(N)cc1 |  | inconclusive: 10.5%
CCOc1ccc(N2C(=O)Nc3ccc(Br)cc3C2(O)C(=O)NC(C)C)cc1 (stereo not drawn) |  | inconclusive: 8.88%
COc1cc(C(=O)NC(=S)Nc2ccc(NC(=O)c3ccco3)cc2)cc(OC)c1OC |  | inconclusive: 0.192%
Cc1ccc(NC2c3ncccc3C(=O)N2C2CCCCC2)cc1 (stereo not drawn) |  | inconclusive: -21.7%
CC1(C)NC(=O)N(CC(O)Cn2c3ccccc3c3ccccc32)C1=O (stereo not drawn) |  | inconclusive: -8.3%
Cc1ccc(N2C(=O)C3C4C=CC(CNC(=S)Nc5cccc(Cl)c5)(O4)C3C2=O)cc1 (stereo not drawn) |  | inactive
CSc1nsc(SCC(=O)Nc2ccc(Br)cn2)n1 |  | inconclusive: 13.4%
COc1cccc(NC(=O)CN(C)C(=O)c2cc(-c3ccccc3)nn2-c2ccccc2)c1 |  | inconclusive: -2.56%
CCOC(=O)C1(Cc2ccc(OC)cc2)CCN(C(=O)CCn2cccn2)CC1 |  | inconclusive: 5.63%

SMILES | Potency | activity change, negative = inhibition
CCCCN(CC)CCCNC(=S)Nc1ccc2nc(N3CCN(CC)CC3)cc(C)c2c1 | inconclusive: 3.55 µM [falling, full curve, poor fit] | 
COCCNC(=O)C1=C(N)C(C(=O)Nc2ccc(C)c(S(=O)(=O)N3CCCCC3)c2)SC1=Nc1ccc(C)cc1C (stereo not drawn) |  | inactive
CCC(=O)N1CCc2cc(Br)cc(S(=O)(=O)N3CCC(C(=O)NC(C)(C)C)CC3)c21 |  | inconclusive: 14.4%
CC(C)CCOP(=O)(c1ccc(N(C)C)cc1)C(O)c1ccccc1 (stereo not drawn) |  | inconclusive: -5.9%
O=c1c2cc(NC(=S)N3CCCCC3)ccc2nc2n1CCCCC2 |  | inconclusive: 11.8%
Cc1ccc(C(=O)c2coc3ccc(OCC(=O)O)cc23)cc1 | inconclusive: 29.1 µM [falling, single point] | 
COc1cc(/C=N/NC(=O)CCC(=O)NCc2ccccc2)cc(OC)c1OC |  | inconclusive: 5.62%
Cc1ccc(-c2cc(C(=O)N/N=C/c3c[nH]c4ccccc34)n[nH]2)o1 |  | inconclusive: -24.4%
CC(=O)C1=C(C)NC(=O)CC1c1ccccc1Cl (stereo not drawn) |  | inactive
COc1ccccc1OCC(=O)N/N=C/c1c(O)ccc2ccccc12 | inconclusive: 31.6 µM [falling, partial curve, poor fit] | 
COc1ccccc1NC(=O)CSc1nnnn1-c1ccc2c(c1)OCO2 | inconclusive: 29.1 µM [falling, single point] | 
Cc1ccc(S(=O)(=O)N2CCN(S(=O)(=O)N3CCOCC3)CC2)cc1C | inconclusive: 0.58 µM [falling, partial curve, poor fit] | 
COc1ccc(CNC(=O)COc2ccccc2C(=O)c2cnn(-c3ccccc3)c2)cc1OC | inconclusive: 18.4 µM [falling, single point] | 
CCOC(=O)C1CCCN(Cc2ccc(OC)c(OCc3ccccc3)c2)C1 (stereo not drawn) |  | inactive
O=C(CSc1ccc2nnc(-c3cccnc3)n2n1)NCC1CCCO1 (stereo not drawn) |  | inactive
COc1ccc(OC)c(-c2nc(C(=O)NCC3CCCO3)cc3c2[nH]c2ccccc23)c1 (stereo not drawn) | inconclusive: 0.891 µM [rising, full curve] | 
Oc1ccc2ccccc2c1CNc1ccc(Br)cn1 |  | inactive
COc1cccc(N2C(=O)C3CCCN3C2c2ccc(F)cc2)c1 (stereo not drawn) |  | inconclusive: -0.773%
Cc1n[nH]c(C)c1CCc1nc2c3ccccc3nc(SCC(=O)Nc3ccccc3F)n2n1 |  | inconclusive: 20.9%
COc1ccc2c(c1)OC[C@H]1[C@@H]2N2C(=O)CNC(=O)[C@@]2(C)[C@H]1c1ccccc1 |  | inconclusive: 6.96%
C[C@H](CO)N1C[C@H](C)[C@@H](CN(C)S(=O)(=O)c2ccccc2)Oc2c(NC(=O)CCC(F)(F)F)cccc2C1=O |  | inactive
COc1ccc(CCNC(=O)CN2CCC(C)CC2)cc1OC |  | inconclusive: 9.87%
CCC(C)(C)NC(=O)c1cc(C(=O)OC)cc([N+](=O)[O-])c1 |  | inconclusive: 4.33%
O=C(CN1CCN(S(=O)(=O)c2ccccc2C(F)(F)F)CC1)NCc1cccs1 |  | inactive
Cc1cc(-c2ccccc2)c2c3c(cn2n1)c(=O)n(C)c(=O)n3C | inconclusive: 23.1 µM [rising, partial curve, poor fit] | 
COC(=O)CCC(=O)NC(=S)Nc1ccccc1F | inconclusive: 7.94 µM [falling, partial curve, poor fit] | 
